Four substances from paper PMC9893541 can be followed below.

Chains of the proteins cited; added tags and fusions are not shown. Lines headed by an entry give the natural chain unless they say otherwise; changes in a name come on top. A line that says so, or that is headed by a name, gives the form on record, which may keep a tag or linker. Residues count along the entry.
UniProt P37023, residues 22-118: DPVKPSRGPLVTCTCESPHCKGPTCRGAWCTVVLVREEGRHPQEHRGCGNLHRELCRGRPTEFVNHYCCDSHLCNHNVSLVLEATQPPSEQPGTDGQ
BMP2 homodimer (P12643, residues 283-396): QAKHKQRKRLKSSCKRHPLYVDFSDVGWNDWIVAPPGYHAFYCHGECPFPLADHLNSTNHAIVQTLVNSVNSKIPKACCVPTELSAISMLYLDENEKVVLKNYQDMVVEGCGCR
BMP2 homodimer with the L333P mutation (P12643, form named): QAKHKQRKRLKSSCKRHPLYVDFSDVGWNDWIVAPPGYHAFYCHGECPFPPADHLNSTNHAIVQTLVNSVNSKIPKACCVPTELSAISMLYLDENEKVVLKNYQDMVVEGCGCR
UniProt P43026, residues 382-501: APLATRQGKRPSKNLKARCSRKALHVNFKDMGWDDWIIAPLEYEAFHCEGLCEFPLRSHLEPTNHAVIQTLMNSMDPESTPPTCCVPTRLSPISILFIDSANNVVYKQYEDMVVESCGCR

Results are given in words; binding and its absence hold for the method and conditions named. Some binding calls cover weakened binding; strength is not graded here. For some assays here: Where a sequence is shown, tags or fusion partners need not be part of it.

What all share (assay): SPR; BIAcore T-200; chimeric Fc-type 1 receptor coupled to a Series S Protein A chip; ligands 6.25-0.049 nM flowed at 50 uL/min, 300 s association, 1000 s dissociation; 20 mM HEPES pH 7.4, 350 mM NaCl, 0.005 % P-20, 0.5 mg/mL BSA, 3.4 mM EDTA; kinetic 1:1 fit (also a bivalent fit); apparent KD = kd/ka; average of N=2; both purified
For orientation: In SPR one partner is held on a chip, and binding of the other changes the refractive index at the surface.

For assay [1], the target named is FC-(Alk1)2 (UniProt P37023).
Assay [2] has as its target T1, FC-(Alk6)2 (UniProt O00238).
T1 sequence: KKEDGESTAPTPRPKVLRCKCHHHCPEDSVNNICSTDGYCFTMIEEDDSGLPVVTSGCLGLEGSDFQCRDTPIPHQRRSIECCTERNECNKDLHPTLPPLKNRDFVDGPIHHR

Assay [3] addresses T2, FC-(Alk2)2 (UniProt Q04771).
T2 sequence: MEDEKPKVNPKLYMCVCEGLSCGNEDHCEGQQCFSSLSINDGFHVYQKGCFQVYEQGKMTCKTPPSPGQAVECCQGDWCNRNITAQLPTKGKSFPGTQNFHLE

As to “BMP2 homodimer (from UniProt P12643 283-396) (ligand)”, the binding entry in assay [1] is reported as “binds weakly”.
For the substance “BMP2 homodimer with the L333P mutation (from UniProt P12643 283-396) (ligand)”, in assay [2], the binding entry was “no binding (tested: 6.25 nM (highest ligand concentration))”.
On to “BMP2/GDF5 heterodimer (from UniProt P12643 283-396; P43026 382-501) (complex)”, for which the binding entry in assay [1] is “binds weakly”.
Regarding “GDF5 homodimer (from UniProt P43026 382-501) (ligand)”, the binding entry in assay [1] and in assay [3] was “binds weakly” throughout.
